# Earlier results in patent US20190274975A1, “NANOPARTICLES FOR STIMULATING ELASTOGENESIS” (The Cleveland Clinic Foundation, priority 2013, published 2019).
# At least one structure is not confirmed: it was looked up by name or label, or the drawing left a doubt.
# Test system: SMCs isolated from rat carotid arteries
# Details: Franco et al. 2006; cited from earlier work
smiles,measurement,value
"C[C@H]1c2cccc(O)c2C(=O)C2=C(O)[C@]3(O)C(=O)C(C(N)=O)=C(O)[C@@H](N(C)C)[C@@H]3[C@@H](O)[C@@H]21 [DOX, doxycycline]","exogenously delivered DOX doses shown to inhibit proliferation, migration and elastic matrix synthesis",16 to 54 µg/mL
